Data source: PubChem BioAssay AID1259254 (NCATS, 2017)
Purpose: 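Finding genes that stop cells copying their DNA twice in one cycle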 (primary screen). System: human HCT116 colorectal cancer cells. Reagent: single siRNA against human genes. Timing: 3 days. Read-out: 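Imaged Hoechst DNA stain sorts each cell into a cycle phase by DNA amount; per plate, G2 fraction set to 0% for non-targeting and 100% for GMNN siRNA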. Direction: G2 robust z-score and G2 cells, % of GMNN control: higher = more G2 cells, more excess DNA replication; raw share of cells in G2: higher = larger share of cells with G2 DNA content. Rule for the call: 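An siRNA counts as active if its G2 robust z-score lies at least 5 MADs above the screen median; here such calls match roughly 38% of GMNN control or more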.
This is one part, drawn at random, of about 59,000 deposited reagents. Of all reagents, about 1,550 (2.6%) got an active call. 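G2 share is only a proxy for re-replication; each gene was hit by three separate siRNAs, and active genes were retested.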 Raw values are not corrected between plates. A number with no mark means an inactive call. Reagents against one gene are numbered here. No sequences are given here. Not given: the amount of reagent.

no.	Gene	reagent	G2 robust z-score	G2 cells, % of GMNN control	raw share of cells in G2 (%)
1	FERD3L (Fer3 like bHLH transcription factor)	1	1.22	11.6	6.88
2	FERD3L (Fer3 like bHLH transcription factor)	2	-0.843	-2.97	2.5
3	FERD3L (Fer3 like bHLH transcription factor)	3	-0.164	1.81	3.75
4	TYMS (thymidylate synthetase)	1	2.08	17.6	10.3
5	TYMS (thymidylate synthetase)	2	0.00537	3.01	5.38
6	TYMS (thymidylate synthetase)	3	0.777	8.43	9.16
7	CHID1 (chitinase domain containing 1)	1	0.0631	3.41	7.06
8	CHID1 (chitinase domain containing 1)	2	-0.88	-3.22	3.21
9	CHID1 (chitinase domain containing 1)	3	2.09	17.6	10.6
10	GPHA2 (glycoprotein hormone subunit alpha 2)	1	1.91	16.4	9.48
11	GPHA2 (glycoprotein hormone subunit alpha 2)	2	-0.499	-0.547	2.78
12	GPHA2 (glycoprotein hormone subunit alpha 2)	3	2.69	21.9	9.69
13	LETM2	1	-0.343	0.551	4.38
14	LETM2	2	1.63	14.4	7.68
15	LETM2	3	-0.741	-2.25	1.76
16	LOC729860 (retired record)	1	-0.362	0.418	4.26
17	LOC729860 (retired record)	2	-0.076	2.43	4.04
18	LOC729860 (retired record)	3	-0.105	2.23	3.99
19	GLRX2 (glutaredoxin 2)	1	0.458	6.19	8.76
20	GLRX2 (glutaredoxin 2)	2	7.54 (active)	56	24.9
21	GLRX2 (glutaredoxin 2)	3	-0.805	-2.69	2.77
22	RLN2 (relaxin 2)	1	-0.867	-3.13	3.48
23	RLN2 (relaxin 2)	2	-0.269	1.08	4.5
24	RLN2 (relaxin 2)	3	2.76	22.4	12.7
25	CTAGE6 (CTAGE family member 6)	1	-0.977	-3.9	2.65
26	CTAGE6 (CTAGE family member 6)	2	0.77	8.39	6.93
27	CTAGE6 (CTAGE family member 6)	3	-0.799	-2.66	3.12
28	PRKAR1A	1	0.0416	3.26	6.1
29	PRKAR1A	2	-0.481	-0.416	4.52
30	PRKAR1A	3	-1.47	-7.34	1.7
31	CD80 (CD80 molecule)	1	-0.718	-2.08	4.22
32	CD80 (CD80 molecule)	2	0.198	4.36	6.59
33	CD80 (CD80 molecule)	3	0.34	5.36	5.94

12 entries from above, reduced to “G2 cells, % of GMNN control”.
GLRX2 (glutaredoxin 2) #1 = 6.19
GLRX2 (glutaredoxin 2) #2 = 56 (active)
GLRX2 (glutaredoxin 2) #3 = -2.69
RLN2 (relaxin 2) #1 = -3.13
RLN2 (relaxin 2) #2 = 1.08
RLN2 (relaxin 2) #3 = 22.4
CTAGE6 (CTAGE family member 6) #1 = -3.9
CTAGE6 (CTAGE family member 6) #2 = 8.39
CTAGE6 (CTAGE family member 6) #3 = -2.66
PRKAR1A #1 = 3.26
PRKAR1A #2 = -0.416
PRKAR1A #3 = -7.34

The list goes on.
no.	Gene	reagent	G2 robust z-score	G2 cells, % of GMNN control	raw share of cells in G2 (%)
34	KLF8 (KLF transcription factor 8)	1	-0.282	0.984	3.85
35	KLF8 (KLF transcription factor 8)	2	-1.07	-4.53	3.97
36	KLF8 (KLF transcription factor 8)	3	0.579	7.04	6.29
37	GIPR (gastric inhibitory polypeptide receptor)	1	-0.921	-3.51	3.29
38	GIPR (gastric inhibitory polypeptide receptor)	2	0.0926	3.62	7.14
39	GIPR (gastric inhibitory polypeptide receptor)	3	0.819	8.73	5.95
40	TRIM28 (tripartite motif containing 28)	1	-0.64	-1.54	5.87
41	TRIM28 (tripartite motif containing 28)	2	-0.574	-1.07	5.23
42	TRIM28 (tripartite motif containing 28)	3	-1.07	-4.54	2.37
43	COMMD9 (COMM domain containing 9)	1	0.272	4.88	4.79
44	COMMD9 (COMM domain containing 9)	2	-0.225	1.38	4.38
45	COMMD9 (COMM domain containing 9)	3	1.75	15.3	10.3
46	COMMD9 (COMM domain containing 9)	4	1.57	14	8.91
47	COMMD9 (COMM domain containing 9)	5	-0.805	-2.7	2.45
48	COMMD9 (COMM domain containing 9)	6	1.2	11.4	9.52
49	STRBP (spermatid perinuclear RNA binding protein)	1	0.002	2.98	4.09
50	STRBP (spermatid perinuclear RNA binding protein)	2	-0.232	1.34	5.04
51	STRBP (spermatid perinuclear RNA binding protein)	3	-1.24	-5.78	1.75
52	BCL9L (BCL9 like)	1	0.167	4.14	4.53
53	BCL9L (BCL9 like)	2	-0.531	-0.767	3.36
54	BCL9L (BCL9 like)	3	0.0247	3.14	4.26
55	CNTF (ciliary neurotrophic factor)	1	2.85	23	13.2
56	CNTF (ciliary neurotrophic factor)	2	-1.21	-5.58	2.96
57	CNTF (ciliary neurotrophic factor)	3	1.3	12.1	8.27
58	PIGU (phosphatidylinositol glycan anchor biosynthesis class U)	1	-1.13	-4.96	2.3
59	PIGU (phosphatidylinositol glycan anchor biosynthesis class U)	2	-0.142	1.97	3.73
60	PIGU (phosphatidylinositol glycan anchor biosynthesis class U)	3	-0.221	1.42	3.09
61	TMEM52 (transmembrane protein 52)	1	0.63	7.4	6.5
62	TMEM52 (transmembrane protein 52)	2	-0.14	1.98	4.99
63	TMEM52 (transmembrane protein 52)	3	0.605	7.22	6.47
64	MT1F (metallothionein 1F)	1	1.58	14.1	11
65	MT1F (metallothionein 1F)	2	2.17	18.2	11.4
66	MT1F (metallothionein 1F)	3	2.76	22.4	11.5
67	ATP6V1H (ATPase H+ transporting V1 subunit H)	1	-0.283	0.979	4.18
68	ATP6V1H (ATPase H+ transporting V1 subunit H)	2	-0.419	0.0199	4.25
69	ATP6V1H (ATPase H+ transporting V1 subunit H)	3	-0.342	0.561	6.21
70	ADPRM (ADP-ribose/CDP-alcohol diphosphatase, manganese dependent)	1	-0.492	-0.491	4.15
71	ADPRM (ADP-ribose/CDP-alcohol diphosphatase, manganese dependent)	2	1.14	11	9.72
72	ADPRM (ADP-ribose/CDP-alcohol diphosphatase, manganese dependent)	3	-0.997	-4.05	1.75
73	PNLDC1 (PARN like ribonuclease domain containing exonuclease 1)	1	-0.93	-3.58	2.32
74	PNLDC1 (PARN like ribonuclease domain containing exonuclease 1)	2	-0.04	2.69	3.86
75	PNLDC1 (PARN like ribonuclease domain containing exonuclease 1)	3	-0.615	-1.36	2.33
76	TRIM17 (tripartite motif containing 17)	1	-0.706	-2	3.03
77	TRIM17 (tripartite motif containing 17)	2	-0.743	-2.26	4.93
78	TRIM17 (tripartite motif containing 17)	3	-0.155	1.88	4.94
79	TOR3A (torsin family 3 member A)	1	0.021	3.11	3.89
80	TOR3A (torsin family 3 member A)	2	-0.0743	2.44	7.01
81	TOR3A (torsin family 3 member A)	3	-0.188	1.64	4.15
82	CENPL (centromere protein L)	1	-0.593	-1.2	3.05
83	CENPL (centromere protein L)	2	0.194	4.33	5.92
84	CENPL (centromere protein L)	3	-0.41	0.0799	3.03
85	CENPL (centromere protein L)	4	0.629	7.39	5.27
86	CENPL (centromere protein L)	5	-0.891	-3.3	2.38
87	CENPL (centromere protein L)	6	-0.0913	2.32	4.46
